{"source": "PubChem BioAssay AID652243 (Drosophila RNAi Screening Center, 2013)", "test": "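Knock-downs that decrease or increase androgen receptor reporter signal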 (primary screen)", "cells": "Drosophila S2R+ cells", "reagent": "long dsRNA against Drosophila genes", "duration": "72 h (48 h, then 24 h hormone)", "challenge": "synthetic androgen R1881 at 10 nM for 24 h", "measurement": "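Per-well raw luminescence of the androgen-driven firefly reporter and of the Renilla control, two replicates each, without normalisation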", "direction": "firefly reporter light: higher = more light from androgen-responsive reporter; Renilla control light: higher = more constitutive control signal (cell number, transfection)", "rule for the call": "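Across duplicate plates, a knock-down whose log firefly/Renilla ratio shifted a set fold down or up from the GFP/LacZ control mean was a hit; the downward cut appears as both 1.5 and 3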", "calls": "active = hit: reporter lowered or raised; inactive = no hit", "note": "The deposit covers about 24,000 reagents; shown is a random part of those that have a named target and a result. Of all reagents, 246 (1%) got an active call. 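Plates not normalised; calls are printed but the firefly/Renilla ratio behind them is not deposited; fold cut for lowering reported inconsistently.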 Raw values are not corrected between plates. Reagents against one gene are numbered here. Names joined by + are all predicted targets of the reagent. Reagent sequences are not shown. The record does not give: the amount of reagent."}
{"gene":"CG8757","dsRNA no.":1,"firefly reporter light, replicate 1":1.81e5,"firefly reporter light, replicate 2":1.92e5,"Renilla control light, replicate 1":2.35e6,"Renilla control light, replicate 2":2.00e6,"call":"inactive"}
{"gene":"CG8757","dsRNA no.":2,"firefly reporter light, replicate 1":5.29e5,"firefly reporter light, replicate 2":1.03e6,"Renilla control light, replicate 1":9.27e5,"Renilla control light, replicate 2":1.28e6,"call":"inactive"}
{"gene":"Fum4","dsRNA no.":1,"firefly reporter light, replicate 1":6.61e5,"firefly reporter light, replicate 2":5.91e5,"Renilla control light, replicate 1":2.16e6,"Renilla control light, replicate 2":2.06e6,"call":"inactive"}
{"gene":"Fum4","dsRNA no.":2,"firefly reporter light, replicate 1":5.95e5,"firefly reporter light, replicate 2":6.61e5,"Renilla control light, replicate 1":9.18e5,"Renilla control light, replicate 2":1.00e6,"call":"inactive"}
{"gene":"CG30060","dsRNA no.":1,"firefly reporter light, replicate 1":1.61e5,"firefly reporter light, replicate 2":1.57e5,"Renilla control light, replicate 1":4.29e5,"Renilla control light, replicate 2":4.47e5,"call":"inactive"}
{"gene":"snRNA:U2:34ABc","dsRNA no.":1,"firefly reporter light, replicate 1":1.21e6,"firefly reporter light, replicate 2":1.25e6,"Renilla control light, replicate 1":1.64e6,"Renilla control light, replicate 2":2.04e6,"call":"inactive"}
{"gene":"fru","dsRNA no.":1,"firefly reporter light, replicate 1":6.84e5,"firefly reporter light, replicate 2":8.28e5,"Renilla control light, replicate 1":2.27e6,"Renilla control light, replicate 2":2.33e6,"call":"inactive"}
{"gene":"fru","dsRNA no.":2,"firefly reporter light, replicate 1":7.28e5,"firefly reporter light, replicate 2":4.79e5,"Renilla control light, replicate 1":5.09e5,"Renilla control light, replicate 2":4.48e5,"call":"inactive"}
{"gene":"park + Targ3","dsRNA no.":1,"firefly reporter light, replicate 1":59725,"firefly reporter light, replicate 2":86374,"Renilla control light, replicate 1":3.26e5,"Renilla control light, replicate 2":3.76e5,"call":"inactive"}
{"gene":"Fam92","dsRNA no.":1,"firefly reporter light, replicate 1":1.02e6,"firefly reporter light, replicate 2":6.74e5,"Renilla control light, replicate 1":2.49e6,"Renilla control light, replicate 2":2.14e6,"call":"inactive"}
{"gene":"Fam92","dsRNA no.":2,"firefly reporter light, replicate 1":4.80e5,"firefly reporter light, replicate 2":4.94e5,"Renilla control light, replicate 1":8.88e5,"Renilla control light, replicate 2":1.07e6,"call":"inactive"}
{"gene":"CG33282","dsRNA no.":1,"firefly reporter light, replicate 1":73325,"firefly reporter light, replicate 2":1.30e5,"Renilla control light, replicate 1":6.32e5,"Renilla control light, replicate 2":1.05e6,"call":"inactive"}
{"gene":"CG6325","dsRNA no.":1,"firefly reporter light, replicate 1":97925,"firefly reporter light, replicate 2":35784,"Renilla control light, replicate 1":9.40e5,"Renilla control light, replicate 2":5.12e5,"call":"inactive"}
{"gene":"CG6380","dsRNA no.":1,"firefly reporter light, replicate 1":1.68e5,"firefly reporter light, replicate 2":1.37e5,"Renilla control light, replicate 1":1.85e6,"Renilla control light, replicate 2":1.53e6,"call":"inactive"}
{"gene":"CG6380","dsRNA no.":2,"call":"inactive"}
{"gene":"Caf1-180","dsRNA no.":1,"firefly reporter light, replicate 1":62009,"firefly reporter light, replicate 2":1.11e5,"Renilla control light, replicate 1":5.38e5,"Renilla control light, replicate 2":8.28e5,"call":"inactive"}
{"gene":"Caf1-180","dsRNA no.":2,"firefly reporter light, replicate 1":9.31e5,"firefly reporter light, replicate 2":8.77e5,"Renilla control light, replicate 1":1.06e6,"Renilla control light, replicate 2":9.06e5,"call":"inactive"}
{"gene":"CG33060","dsRNA no.":1,"firefly reporter light, replicate 1":2.28e5,"firefly reporter light, replicate 2":2.17e5,"Renilla control light, replicate 1":2.02e6,"Renilla control light, replicate 2":1.88e6,"call":"inactive"}
{"gene":"Abca3","dsRNA no.":1,"firefly reporter light, replicate 1":2.42e5,"firefly reporter light, replicate 2":1.91e5,"Renilla control light, replicate 1":6.83e5,"Renilla control light, replicate 2":5.64e5,"call":"inactive"}
{"gene":"Srg2","dsRNA no.":1,"firefly reporter light, replicate 1":3.35e5,"firefly reporter light, replicate 2":5.72e5,"Renilla control light, replicate 1":5.70e5,"Renilla control light, replicate 2":9.28e5,"call":"inactive"}
{"gene":"Srg2","dsRNA no.":2,"firefly reporter light, replicate 1":7.24e5,"firefly reporter light, replicate 2":7.08e5,"Renilla control light, replicate 1":9.73e5,"Renilla control light, replicate 2":1.15e6,"call":"inactive"}
